Assay results taken from PubChem BioAssay AID1688 (National Center for Advancing Translational Sciences (NCATS), 2009).
About 2,400 (1.1%) of roughly 220,000 compounds were called active. Inconclusive means that the source gave no clear call. Such entries were picked first, then a sample of the others. The call rests on the fitted dose curve; in most records, active means well fitted inhibition curve with a large enough effect; inconclusive means small, poorly fitted or top-dose-only effect, or effect the other way; inactive means no such curve, though single readings can be large or run the other way. Where the call is inconclusive, the potency comes from a doubtful curve fit.

Experiment: qHTS Multiplex Assay to Identify Dual Action Probes in a Cell Model of Huntington: Aggregate Formation (GFP); further: nearly all actives have a fitted effect of over 60% in size
Conditions: PC12 HttQ103-GFP aggregates, Acumen cytometry, 40 h; activity change, negative = inhibition: at 46.1 µM (top of the series) unless noted
In short: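 PC12 cells with ecdysone-inducible HTT exon1 Q103-GFP, induced by 100 nM tebufenozide, given compounds in a concentration series. GFP aggregates (1–25 um, 6 SD above background) counted in lysates by laser-scanning cytometry, 488 nm excitation.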
On the % scale 0 is the no-effect control and ±100 the full control effect; potency means the concentration at half of the fitted maximal effect.

SMILES	Potency	activity change, negative = inhibition
CN(C)Cc1cc(C(C)(C)c2cc(CN(C)C)c(O)c(CN(C)C)c2)cc(CN(C)C)c1O	active: 39.8 µM	–
Cn1c(SCC(=O)Nc2cc(C(C)(C)C)nn2-c2ccccc2)nc2ccccc21	–	inactive: 14.1%
O=C(Nc1c(F)cccc1F)c1cnc(N2CCN(c3ccccn3)CC2)c2ccccc12	inconclusive: 35.5 µM [inhibitor, single point]	–
Cc1nc2ccccc2n1-c1nc(-c2ccco2)cc(C(F)(F)F)n1	active: 3.16 µM	–
Cc1cc(Nc2cccc([N+](=O)[O-])c2)n2c(nc3ccccc32)c1C#N	active: 2.82 µM	–
CCOC(=O)C1CCCN(C(=O)Nc2ccccc2)C1 (centres undefined)	active: 0.631 µM	–
COc1cccc(C(=O)COc2ccc3ccc(=O)oc3c2)c1	inconclusive: 2.51 µM [activator, partial curve, poor fit]	–
COC(=O)c1[nH]c2ccc(C)cc2c1NC(=O)CN1CCCc2ccccc21	inconclusive: 3.98 µM [inhibitor, single point]	–
CC1(C(=O)OCC(=O)N2c3ccccc3Sc3ccccc32)CC1(Cl)Cl (centres undefined)	inconclusive: 2.24 µM [inhibitor, partial curve]	–
CCn1c(SCC(=O)Nc2cc(OC)c(OC)c(OC)c2)nnc1-c1cccs1	inconclusive: 31.6 µM [inhibitor, single point]	–
N#Cc1cc2ccc(N3CCOCC3)cc2cc1C#N	inconclusive: 2 µM [inhibitor, full curve, poor fit]	–
CCn1c2ccccc2c2cc(CN3CCN(C(=O)c4ccco4)CC3)ccc21	inconclusive: 7.08 µM [inhibitor, partial curve]	–
Cn1cc([N+](=O)[O-])c(C(=O)Nc2ccc3nc(-c4ccccc4)[nH]c3c2)n1	inconclusive: 7.94 µM [activator, partial curve]	–
Cc1ccccc1-c1nc(CS(=O)(=O)CC(=O)N(C)C2CCCCC2)c(C)o1	inconclusive: 35.5 µM [inhibitor, single point]	–
COc1ccc(CCNC(=O)CSC(=O)c2ccccc2)cc1OC	inconclusive: 4.47 µM [activator, full curve, poor fit]	–
CC(C)(C)C(=O)CSc1ncnc2c1cnn2-c1ccccc1	inconclusive: 0.631 µM [activator, single point]	–
Cc1cc(-c2nc3cccnc3s2)ccc1NS(=O)(=O)c1ccc2c(c1)OCCO2	inconclusive: 11.2 µM [inhibitor, single point]	–
CC(C)(C)c1ccccc1OCCOCCSc1ncccn1	inconclusive: 17.8 µM [inhibitor, single point]	–
O=C(O)c1cccc(COc2ccccc2Cl)c1	–	inactive: -24.9%
O=c1c2ccccc2[nH]c2ccc(F)cc12	inconclusive: 12.6 µM [inhibitor, partial curve]	–
CC(=O)Nc1ccc(S(=O)(=O)N(Cc2ccccc2)C(C)C)cc1	inconclusive: 35.5 µM [inhibitor, single point]	–
O=C(Sc1cccc2cccnc12)c1ccc(F)cc1	active: 10 µM	–
CCN(CC)c1ccc(NC(=O)c2ccco2)c(C)c1	inconclusive: 10 µM [inhibitor, partial curve, poor fit]	–

SMILES	Potency	activity change, negative = inhibition
O=C(CCCOc1ccc(Cl)cc1Cl)Nc1ccccc1C(=O)O	–	inactive: -14.8% [at 9.22 µM]
CC(=O)c1ccc(Sc2ccccc2)cc1	–	inactive: -2.02%
COc1ccc(C2NC(=O)c3sc(=S)n(-c4ccccc4)c3N2)cc1 (centres undefined)	–	inactive: -10.4%
O=C(Nc1nnc(-c2ccncc2)o1)c1ccccc1	inconclusive: 14.1 µM [inhibitor, single point]	–
COc1cccc(-c2nc(CS(=O)(=O)CC(=O)NCCCOC(C)C)c(C)o2)c1	–	inactive: 4.97%
COC(=O)[C@@]1(Cc2ccc(F)cc2)[C@H]2c3cc(C(=O)N(C)C)n(Cc4nc5ccccc5[nH]4)c3C[C@H]2CN1C(=O)c1ccccc1	–	inactive: 2.58%
CC(Sc1nc(N)cc(=O)[nH]1)C(=O)Nc1sc2c(c1C#N)CCCC2 (centres undefined)	inconclusive: 10 µM [inhibitor, partial curve]	–
Cc1ccc(N=Cc2c(C)[nH]n(-c3nc4ccccc4[nH]3)c2=O)cc1	–	inactive: 3.29%
O=C(O)c1ccccc1-c1ccc(/C=C/c2cc(C(F)(F)F)[nH]c(=O)n2)o1	inconclusive: 20 µM [inhibitor, single point]	–
CCOC(=O)C1=C(N)Oc2cc(C)n(CCc3ccc(OC)c(OC)c3)c(=O)c2C1c1cccnc1 (centres undefined)	inconclusive: 11.2 µM [activator, partial curve]	–
COC(=O)C1=C(C)N(Cc2ccc(OC)cc2)C(=O)C1	inconclusive: 11.2 µM [activator, single point]	–
CCN(CC)S(=O)(=O)c1ccc(C)c(NC(=S)N2CCN(C/C=C/c3ccccc3)CC2)c1	inconclusive: 14.1 µM [inhibitor, single point]	–
N=c1c2c(n(Cc3ccccc3)c3c1CCC3)CCC2	active: 8.91 µM	–
COc1ccc(C2Nc3ccccc3C(=O)N2Cc2ccco2)cc1COc1ccc(F)cc1 (centres undefined)	–	inactive: -16.1%
CC1(C)CC(=O)C2=C(C1)N(c1cccc(Cl)c1)C(=O)NC2(C(F)(F)F)C(F)(F)F	inconclusive: 35.5 µM [activator, single point]	–
Cc1cccc(CN2CCN(C(=O)c3ccccc3F)CC2)c1	inconclusive: 35.5 µM [inhibitor, single point]	–
CCOC(=O)Cn1c(-c2ccc(Cl)nc2)nc2ccccc21	inconclusive: 17.8 µM [activator, single point]	–
c1ccc(-c2noc(-c3ccc4c(c3)OCO4)n2)cc1	–	inactive: -1.33% [at 9.22 µM]
COc1ccc(/C=N/Nc2cc(C)nc(-n3nc(C)cc3C)n2)cc1	active: 14.1 µM	–
COCCNC(=O)CN(Cc1ccc2c(c1)OCO2)C(=O)CCC(=O)Nc1nccs1	–	inactive: -16%
CC(C)c1nc(N2CCCC2)c(C#N)c2c1CCCC2	inconclusive: 6.31 µM [inhibitor, full curve, poor fit]	–
O=C(c1ccc(O)cc1)c1ccc(C(=O)c2ccc(O)cc2)cc1	inconclusive: 31.6 µM [inhibitor, single point]	–
COc1ccc(NC(=O)N(C2CCCCC2)C2CCN(C(C)C)CC2)c(OC)c1	inconclusive: 1 µM [activator, full curve, poor fit]	–

Look-ups from above.
For Potency, COC(=O)C1=C(C)N(Cc2ccc(OC)cc2)C(=O)C1 has inconclusive: 11.2 µM [activator, single point]
For Potency, COc1ccc(NC(=O)N(C2CCCCC2)C2CCN(C(C)C)CC2)c(OC)c1 has inconclusive: 1 µM [activator, full curve, poor fit]
For activity change, negative = inhibition, COc1ccc(C2NC(=O)c3sc(=S)n(-c4ccccc4)c3N2)cc1 (centres undefined) has inactive: -10.4%

Following part

SMILES	Potency	activity change, negative = inhibition
CCCn1nc2cc(C(=O)NCC34CC5CC(CC(C5)C3)C4)ccc2c1OCC	active: 31.6 µM	–
Cc1ccc(NS(=O)(=O)c2cc([N+](=O)[O-])ccc2NNC(=S)Nc2cc(C)ccc2C)c(C)c1	inconclusive: 35.5 µM [inhibitor, single point]	–
O=S(=O)(Nc1ccc(-c2cn3ccsc3n2)cc1)c1ccc2c(c1)OCCO2	inconclusive: 17.8 µM [inhibitor, single point]	–
COC(=O)c1ccc(NC(=O)c2cccc(OC)c2)cc1	–	inactive: -7.89%
Cc1ccc(NC(=O)c2ccc(CSc3ccccn3)cc2)c(O)c1	–	inactive: 20.8% [at 9.22 µM]
COc1cc(-c2nc3ccc(C)cn3c2Nc2ccc3c(c2)OCCO3)ccc1O	inconclusive: 35.5 µM [activator, single point]	–
COc1ccc([N+](=O)[O-])cc1NC(=S)NC(NC(=O)C(c1ccccc1)c1ccccc1)C(Cl)(Cl)Cl (centres undefined)	inconclusive: 35.5 µM [inhibitor, single point]	–
O=C(/C=C1\SC(=O)N(CC(=O)Nc2ccc(Cl)cc2)C1=O)Nc1ccc(F)cc1	inconclusive: 5.62 µM [activator, single point]	–
Cc1cc(Cl)ccc1N=c1ssnc1Cl	–	inactive: -17.2% [at 9.22 µM]
Cc1ccc(N=Nc2c(O)c3ccccc3[nH]c2=O)c(S(=O)(=O)N(C)C)c1	–	inactive: 4.18% [at 9.22 µM]
CS(=O)(=O)c1ccc(C(=O)NCCN2C(=O)S/C(=C\c3cccnc3)C2=O)cc1[N+](=O)[O-]	inconclusive: 12.6 µM [inhibitor, single point]	–
Cc1ccc(NC(=O)c2ccc(F)cc2)cc1S(=O)(=O)N1CCCCCC1	inconclusive: 35.5 µM [inhibitor, single point]	–
Oc1ccc(O)c(Cc2nc3ccccc3[nH]2)c1	inconclusive: 8.91 µM [activator, partial curve]	–
COCCn1c(C)cc(C(=O)COC(=O)c2ccccc2Br)c1C	–	inactive: 8.36%
CN(C(=S)Nc1ccccc1F)C1(c2ccccc2Cl)CCCCC1=O (centres undefined)	inconclusive: 35.5 µM [inhibitor, single point]	–
CC(=O)Oc1ccc(N2C(=O)C3C(C2=O)C2(C)C=CC3(C)O2)cc1 (centres undefined)	inconclusive: 35.5 µM [inhibitor, single point]	–
Nn1c(SCC(=O)Nc2ccc3c(c2)OCO3)nnc1-c1ccncc1	inconclusive: 0.1 µM [inhibitor, partial curve, poor fit]	–
CCOc1ccc(-c2c[n+]3c(n2-c2ccccc2)CCCCC3)cc1	inconclusive: 0.891 µM [inhibitor, full curve]	–
CC(=O)OCCCNc1cc(Sc2ccc(C)cc2)c2nonc2c1[N+](=O)[O-]	inconclusive: 35.5 µM [inhibitor, single point]	–
N#CCC(=O)NN=C1CCCCCCCCCCC1	–	inactive: -1.77%
CCOC(=O)N/N=C/c1c(C)nn(-c2cccc(C(F)(F)F)c2)c1Cl	–	inactive: -5.27%
CC1CCCCN1C(=O)CSc1ccc(-c2ccc(F)cc2)nn1 (centres undefined)	–	inactive: 0.743%
COc1ccc(C(=O)NC(=S)N(CCC(C)C)c2c(N)n(Cc3ccccc3)c(=O)[nH]c2=O)cc1	inconclusive: 35.5 µM [activator, single point]	–

3 entries picked at random from the list so far, as already listed:
SMILES	Potency	activity change, negative = inhibition
COc1ccc(/C=N/Nc2cc(C)nc(-n3nc(C)cc3C)n2)cc1	active: 14.1 µM	–
Cc1ccc(NS(=O)(=O)c2cc([N+](=O)[O-])ccc2NNC(=S)Nc2cc(C)ccc2C)c(C)c1	inconclusive: 35.5 µM [inhibitor, single point]	–
CCCn1nc2cc(C(=O)NCC34CC5CC(CC(C5)C3)C4)ccc2c1OCC	active: 31.6 µM	–
